{"sequences": {"note": "By UniProt entry, the sequences of proteins in these tests, tags left out. Where a name states a change or a piece, a line headed by the entry shows the natural chain unless it says otherwise. Chains listed by the source or under a name are the forms on record and can include a tag or linker.", "H6NA3 (P06731, form named)": "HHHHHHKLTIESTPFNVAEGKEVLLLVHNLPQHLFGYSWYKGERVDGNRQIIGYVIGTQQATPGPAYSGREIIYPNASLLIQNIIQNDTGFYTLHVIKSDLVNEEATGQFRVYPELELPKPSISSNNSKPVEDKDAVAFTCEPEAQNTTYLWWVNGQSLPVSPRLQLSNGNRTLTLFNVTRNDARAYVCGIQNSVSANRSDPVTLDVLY"}, "source": "patent US20050201934A1", "note": "No constants are given. Whether binding was seen depends on the method and setting. Some entries that bind do so weakly or less than the wild type."}
{"molecular_target": "H6NA3 (UniProt P06731)", "assay": "competition phage ELISA on NA3, soluble peptide DX306 at 20, 10, 5, 2.5, 1.25, 0.625 and 0 uM, and no target [a]"}
{"binder": "DWVCEYFKNQWFCNVL", "note": "[304A-12-H12 (phage isolate)]", "binding": "binds"}
{"molecular_target": "H6NA3 (UniProt P06731)", "assay": "phage ELISA on dried H6NA3 plate"}
{"binder": "DWVCENKKDQWTCNLL", "note": "[TN10/9 Isolate A07 (phage isolate)]", "binding": "binds"}
{"binder": "NWVCNLFKNQWFCNSY", "note": "[TN10/9 Isolate G08 (phage isolate)]", "binding": "binds"}
{"binder": "DWVCNFDQGLAHCFPS", "note": "[TN10/9 Isolate D04 (phage isolate)]", "binding": "binds"}
{"binder": "NWDCMFGAEGWACSPW", "note": "[TN10/9 Isolate E01 (phage isolate)]", "binding": "binds"}
{"binder": "NWFCEMIGRQWGCVPS", "note": "[TN10/9 Isolate F11 (phage isolate)]", "binding": "binds"}
{"molecular_target": "H6NA3 (UniProt P06731)", "assay": "competition phage ELISA, target 0.1 ug/well, soluble peptide DX-207 at 20, 2 and 0 uM, and no target"}
{"binder": "DWVCENKKDQWTCNLL", "note": "[TN10/9 Isolate A07 (phage isolate)]", "binding": "binds"}
{"binder": "DWVCEYFKNQWFCNVL", "note": "[304A-12-H12 (phage isolate)]", "binding": "binds"}
{"binder": "DWVCNLFKNQWFCDTL", "note": "[304A-14-A12 (phage isolate)]", "binding": "binds"}
{"binder": "NWVCNLFKNQWFCNSY", "note": "[TN10/9 Isolate G08 (phage isolate)]", "binding": "binds"}
{"molecular_target": "H6NA3 (UniProt P06731)", "assay": "phage ELISA on H6NA3, anti-M13-HRP, OD630"}
{"binder": "RYCEFFPWSLHCGRP", "note": "[TN10/9 Isolate B10 (phage isolate)]", "binding": "no binding (tested: 5x10^10 phage/well on 100 ng H6NA3/well)"}
{"binder": "NWRCKLFPRYPYCSSW", "note": "[TN10/9 Isolate G01 (phage isolate)]", "binding": "no binding (tested: 5x10^10 phage/well on 100 ng H6NA3/well)"}
{"molecular_target": "H6NA3 (UniProt P06731)", "assay": "phage ELISA, NA3 coated at 0.1, 0.05, 0.01, 0.005, 0.001 ug/well and no target"}
{"binder": "DWVCENKKDQWTCNLL", "note": "[TN10/9 Isolate A07 (phage isolate)]", "binding": "binds"}
{"binder": "DWVCEYFKNQWFCNVL", "note": "[304A-12-H12 (phage isolate)]", "binding": "binds"}
{"binder": "DWVCNLFKNQWFCDTL", "note": "[304A-14-A12 (phage isolate)]", "binding": "binds"}
{"binder": "NWVCNLFKNQWFCNSY", "note": "[TN10/9 Isolate G08 (phage isolate)]", "binding": "binds"}
{"molecular_target": "H6NA3 (UniProt P06731)", "assay": "competition phage ELISA, target 0.1 ug/well; blocked ligands: phage A07, G08, 304A-11-F02"}
{"binder": "NWVCNLFKNQWFCNSY", "note": "[DX-207]", "binding": "binds"}
{"molecular_target": "H6NA3 (UniProt P06731)", "assay": "phage ELISA, NA3 at 30, 10, 3 and 0 ng/well"}
{"binder": "DWVCEYFKNQWFCNVL", "note": "[304A-12-H12 (phage isolate)]", "binding": "binds"}
{"molecular_target": "H6NA3 (UniProt P06731)", "assay": "phage ELISA on NA3"}
{"binder": "DWVCEYFKNQWFCNVL", "note": "[304A-12-H12 (phage isolate)]", "binding": "binds"}
{"binder": "DWVCNLFKNQWFCDTL", "note": "[304A-14-A12 (phage isolate)]", "binding": "binds"}
{"binder": "DWVCEWLKMQWACNIL", "note": "[315A-17-B01 (phage isolate)]", "binding": "binds"}
{"binder": "DWVCEWLKPQWYCNSL", "note": "[315A-17-B12 (phage isolate)]", "binding": "binds"}
{"binder": "DWVCEFIKSQWFCNVL", "note": "[315A-17-G08 (phage isolate)]", "binding": "binds"}
{"binder": "DWVCEIVKNQWICNPL", "note": "[315A-18-E01 (phage isolate)]", "binding": "binds"}
{"binder": "DWVCEFFKDQWFCNIL", "note": "[315A-18-E02 (phage isolate)]", "binding": "binds"}
{"molecular_target": "H6NA3 (UniProt P06731)", "assay": "phage ELISA, NA3 at 30, 10.0, 3.0 and 0 ng/well"}
{"binder": "DWVCEYFKNQWFCNVL", "note": "[304A-12-H12 (phage isolate)]", "binding": "binds"}
{"binder": "DWVCEWLKMQWACNIL", "note": "[315A-17-B01 (phage isolate)]", "binding": "binds"}
{"binder": "DWVCEWLKPQWYCNSL", "note": "[315A-17-B12 (phage isolate)]", "binding": "binds"}
{"binder": "DWVCEFIKSQWFCNVL", "note": "[315A-17-G08 (phage isolate)]", "binding": "binds"}
{"binder": "DWVCEIVKNQWICNPL", "note": "[315A-18-E01 (phage isolate)]", "binding": "binds"}
{"binder": "DWVCEFFKDQWFCNIL", "note": "[315A-18-E02 (phage isolate)]", "binding": "binds"}
{"molecular_target": "H6NA3 (UniProt P06731)", "assay": "competition phage ELISA on NA3, soluble peptide DX306 at 10, 5, 2.5, 0.5 and 0 uM, and no target"}
{"binder": "DWVCEYFKNQWFCNVL", "note": "[304A-12-H12 (phage isolate)]", "binding": "binds"}
{"binder": "DWVCEWLKMQWACNIL", "note": "[315A-17-B01 (phage isolate)]", "binding": "binds"}
{"binder": "DWVCEWLKPQWYCNSL", "note": "[315A-17-B12 (phage isolate)]", "binding": "binds"}
{"binder": "DWVCEFIKSQWFCNVL", "note": "[315A-17-G08 (phage isolate)]", "binding": "binds"}
{"binder": "DWVCEIVKNQWICNPL", "note": "[315A-18-E01 (phage isolate)]", "binding": "binds"}
{"binder": "DWVCEFFKDQWFCNIL", "note": "[315A-18-E02 (phage isolate)]", "binding": "binds"}
{"molecular_target": "H6NA3 (UniProt P06731)", "assay": "phage ELISA, varying amounts of NA3 per well (FIG. 2)"}
{"binder": "DWVCENKKDQWTCNLL", "note": "[TN10/9 Isolate A07 (phage isolate)]", "binding": "binds"}
{"binder": "DWVCEYFKNQWFCNVL", "note": "[304A-12-H12 (phage isolate)]", "binding": "binds"}
{"binder": "DWVCNLFKNQWFCDTL", "note": "[304A-14-A12 (phage isolate)]", "binding": "binds"}
{"binder": "NWVCNLFKNQWFCNSY", "note": "[TN10/9 Isolate G08 (phage isolate)]", "binding": "binds"}
{"molecular_target": "H6NA3 (UniProt P06731)", "assay": "phage ELISA on H6NA3 coated at 100 ng/well, 5x10^10 phage/well, anti-M13-HRP; bars No Ab, 10 nM and 100 nM cT84.66, BSA"}
{"binder": "DWVCENKKDQWTCNLL", "note": "[TN10/9 Isolate A07 (phage isolate)]", "binding": "binds"}
{"binder": "NWVCNLFKNQWFCNSY", "note": "[TN10/9 Isolate G08 (phage isolate)]", "binding": "binds"}
{"binder": "DWVCNFDQGLAHCFPS", "note": "[TN10/9 Isolate D04 (phage isolate)]", "binding": "binds"}
{"binder": "NWDCMFGAEGWACSPW", "note": "[TN10/9 Isolate E01 (phage isolate)]", "binding": "binds"}
{"binder": "NWFCEMIGRQWGCVPS", "note": "[TN10/9 Isolate F11 (phage isolate)]", "binding": "binds"}
